# Results reported in PMC12482187.
# Protein sequences, listed by entry. Tags and fused reporters are not part of them. Lines headed by an entry give the natural chain unless they say otherwise; changes in a name come on top.
# UniProt Q2LKW8: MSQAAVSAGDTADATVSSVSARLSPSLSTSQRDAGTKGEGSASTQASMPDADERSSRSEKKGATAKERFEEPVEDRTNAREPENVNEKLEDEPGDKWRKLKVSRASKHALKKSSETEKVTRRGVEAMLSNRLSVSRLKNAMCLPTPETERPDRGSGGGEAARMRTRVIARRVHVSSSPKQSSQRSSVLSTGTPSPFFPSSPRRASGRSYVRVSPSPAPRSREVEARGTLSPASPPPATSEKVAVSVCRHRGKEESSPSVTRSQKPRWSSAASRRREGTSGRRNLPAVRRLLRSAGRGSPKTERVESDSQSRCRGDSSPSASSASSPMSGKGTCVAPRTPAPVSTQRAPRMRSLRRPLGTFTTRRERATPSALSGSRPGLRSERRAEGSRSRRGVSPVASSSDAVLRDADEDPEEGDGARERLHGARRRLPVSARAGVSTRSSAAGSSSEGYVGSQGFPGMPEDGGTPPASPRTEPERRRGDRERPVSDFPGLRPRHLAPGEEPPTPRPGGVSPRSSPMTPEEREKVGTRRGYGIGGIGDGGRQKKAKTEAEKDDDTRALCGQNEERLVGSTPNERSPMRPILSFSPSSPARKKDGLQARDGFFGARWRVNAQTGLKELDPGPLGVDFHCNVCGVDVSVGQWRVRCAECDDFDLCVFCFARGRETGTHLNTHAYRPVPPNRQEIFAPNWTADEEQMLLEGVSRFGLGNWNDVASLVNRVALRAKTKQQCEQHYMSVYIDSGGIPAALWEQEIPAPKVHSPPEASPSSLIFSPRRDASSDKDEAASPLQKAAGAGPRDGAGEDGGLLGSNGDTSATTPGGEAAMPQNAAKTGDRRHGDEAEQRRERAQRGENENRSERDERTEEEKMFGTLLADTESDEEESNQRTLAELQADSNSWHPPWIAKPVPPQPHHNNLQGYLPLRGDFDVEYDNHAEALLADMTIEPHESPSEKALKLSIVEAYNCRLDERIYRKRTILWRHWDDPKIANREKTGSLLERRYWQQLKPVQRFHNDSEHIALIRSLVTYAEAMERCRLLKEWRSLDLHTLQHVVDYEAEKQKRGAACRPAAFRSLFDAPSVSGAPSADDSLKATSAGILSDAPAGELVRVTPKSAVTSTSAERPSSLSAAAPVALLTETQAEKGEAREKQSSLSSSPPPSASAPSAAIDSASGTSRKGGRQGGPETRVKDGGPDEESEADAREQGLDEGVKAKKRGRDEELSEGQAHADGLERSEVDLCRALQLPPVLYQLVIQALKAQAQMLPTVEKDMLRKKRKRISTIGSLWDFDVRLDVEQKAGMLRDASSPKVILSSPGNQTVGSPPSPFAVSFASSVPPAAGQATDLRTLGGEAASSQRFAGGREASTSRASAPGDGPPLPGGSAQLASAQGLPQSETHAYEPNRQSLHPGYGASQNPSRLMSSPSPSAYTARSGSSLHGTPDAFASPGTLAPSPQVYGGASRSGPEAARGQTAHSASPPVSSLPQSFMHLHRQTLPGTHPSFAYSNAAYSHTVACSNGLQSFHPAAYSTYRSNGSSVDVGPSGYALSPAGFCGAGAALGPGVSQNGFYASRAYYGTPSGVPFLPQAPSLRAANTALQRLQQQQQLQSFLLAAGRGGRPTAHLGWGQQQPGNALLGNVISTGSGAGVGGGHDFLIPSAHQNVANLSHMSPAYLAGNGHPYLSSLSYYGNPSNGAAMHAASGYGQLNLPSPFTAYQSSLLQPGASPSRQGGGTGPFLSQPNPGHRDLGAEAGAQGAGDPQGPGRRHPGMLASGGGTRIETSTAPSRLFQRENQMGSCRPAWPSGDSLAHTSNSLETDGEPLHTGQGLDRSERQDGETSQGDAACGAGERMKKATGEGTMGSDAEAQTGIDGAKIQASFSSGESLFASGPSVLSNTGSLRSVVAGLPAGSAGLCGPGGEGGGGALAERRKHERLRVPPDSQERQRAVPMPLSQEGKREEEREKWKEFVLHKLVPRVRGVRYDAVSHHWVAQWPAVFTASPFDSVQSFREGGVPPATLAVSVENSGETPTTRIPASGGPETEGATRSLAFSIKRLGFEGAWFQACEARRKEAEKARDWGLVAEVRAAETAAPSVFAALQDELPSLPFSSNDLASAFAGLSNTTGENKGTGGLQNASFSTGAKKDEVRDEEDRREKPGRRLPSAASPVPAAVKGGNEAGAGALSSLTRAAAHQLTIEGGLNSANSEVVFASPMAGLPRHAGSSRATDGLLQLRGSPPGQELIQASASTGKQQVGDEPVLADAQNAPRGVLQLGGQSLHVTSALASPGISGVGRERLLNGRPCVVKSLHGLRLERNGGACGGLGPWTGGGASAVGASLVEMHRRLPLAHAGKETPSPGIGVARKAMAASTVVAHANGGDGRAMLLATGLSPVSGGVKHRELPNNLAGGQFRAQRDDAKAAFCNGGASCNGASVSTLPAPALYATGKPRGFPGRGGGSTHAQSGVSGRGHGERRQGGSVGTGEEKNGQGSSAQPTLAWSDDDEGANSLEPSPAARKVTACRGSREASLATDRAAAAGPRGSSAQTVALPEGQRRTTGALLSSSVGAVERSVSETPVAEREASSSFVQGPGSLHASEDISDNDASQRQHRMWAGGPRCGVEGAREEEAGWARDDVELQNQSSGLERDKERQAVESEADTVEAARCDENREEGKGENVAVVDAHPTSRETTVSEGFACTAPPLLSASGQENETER
# Biological target: T1, GCN5a^HA (lysine acetyltransferase GCN5a, endogenously tagged with 3xHA, RH strain) (Toxoplasma gondii (endogenous in RH strain parasites)) (UniProt S8GIK3)
# T1 sequence: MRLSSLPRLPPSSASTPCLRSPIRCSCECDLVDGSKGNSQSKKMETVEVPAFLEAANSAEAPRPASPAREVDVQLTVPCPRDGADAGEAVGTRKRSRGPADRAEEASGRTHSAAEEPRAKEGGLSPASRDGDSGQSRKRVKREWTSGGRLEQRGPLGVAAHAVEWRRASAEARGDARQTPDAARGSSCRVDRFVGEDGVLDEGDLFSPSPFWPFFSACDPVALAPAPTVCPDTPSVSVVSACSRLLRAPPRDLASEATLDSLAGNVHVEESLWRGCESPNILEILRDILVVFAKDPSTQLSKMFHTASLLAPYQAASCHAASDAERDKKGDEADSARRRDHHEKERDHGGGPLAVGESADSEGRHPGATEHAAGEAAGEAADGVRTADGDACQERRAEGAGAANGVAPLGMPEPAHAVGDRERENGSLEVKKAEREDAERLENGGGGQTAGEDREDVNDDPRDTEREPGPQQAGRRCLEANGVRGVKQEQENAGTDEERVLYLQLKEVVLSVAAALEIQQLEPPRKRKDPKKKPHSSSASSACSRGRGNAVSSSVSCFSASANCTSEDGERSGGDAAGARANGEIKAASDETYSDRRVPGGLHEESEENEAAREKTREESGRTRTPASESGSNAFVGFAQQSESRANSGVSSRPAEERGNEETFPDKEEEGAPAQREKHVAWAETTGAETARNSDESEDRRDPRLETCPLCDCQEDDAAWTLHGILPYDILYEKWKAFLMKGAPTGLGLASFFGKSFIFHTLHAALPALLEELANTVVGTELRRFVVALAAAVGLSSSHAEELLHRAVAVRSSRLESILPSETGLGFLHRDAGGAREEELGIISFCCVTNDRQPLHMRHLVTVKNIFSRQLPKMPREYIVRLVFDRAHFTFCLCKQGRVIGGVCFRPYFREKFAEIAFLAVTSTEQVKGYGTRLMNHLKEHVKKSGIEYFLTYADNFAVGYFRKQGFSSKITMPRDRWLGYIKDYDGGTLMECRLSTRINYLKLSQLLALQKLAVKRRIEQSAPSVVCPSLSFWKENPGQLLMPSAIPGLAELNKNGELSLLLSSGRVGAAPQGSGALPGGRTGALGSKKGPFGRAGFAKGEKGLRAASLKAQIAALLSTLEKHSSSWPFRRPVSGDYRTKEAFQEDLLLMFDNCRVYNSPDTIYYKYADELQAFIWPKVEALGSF
# Assay: affinity purification with mass spectrometry; RH-GCN5a^HA parasites, no stress or 48 h alkaline stress, three biological replicates each; whole cell lysate (50 mM Tris-HCl pH 7.4, 150 mM NaCl, 1 mM MgCl2, 0.5% NP-40, 10% glycerol), precleared with mouse IgG beads, anti-HA magnetic beads overnight at 4°C; untagged RH parasites as control; hits not detected in the parental strain and with at least five peptides in two of three replicates
row,Substance,binding
1,"AP2X-5, RH strain",binds
2,"AP2V-1, RH strain",binds
3,"AP2XII-4, RH strain",binds
4,"AP2VIIb-1/ADA2-B, RH strain (from UniProt Q2LKW8)",binds
5,"PHD-finger domain-containing protein (TGGT1_234900), RH strain",binds

# Biological target: T2, GCN5a^HA (lysine acetyltransferase GCN5a, endogenously tagged with 3xHA, Pru strain) (Toxoplasma gondii (endogenous in Pru strain parasites)) (UniProt S8GIK3)
# T2 sequence: T1 sequence
# Assay: affinity purification with mass spectrometry; single pull-down (co-IP) from Pru GCN5a^HA parasites after 48 h alkaline stress; low peptide yields, called a preliminary account
row,Substance,binding
1,"AP2X-5, Pru strain",binds
2,"PHD-finger domain-containing protein (TGGT1_234900), Pru strain",binds
3,"AP2V-1, Pru strain",binds
4,"AP2VIIb-1/ADA2-B, Pru strain",binds
5,"AP2XII-4, Pru strain",binds

# No constants are given. Whether binding was seen depends on the method and setting. In cells and extracts the contact can be indirect. Here binding means that the protein was enriched with, or labelled near, the bait; the list need not be complete. Tags and fused reporters may be left off the sequences shown.
